Assay results as given in PubChem BioAssay AID2685 (National Center for Advancing Translational Sciences (NCATS), 2010).
The list shows a part of the results. The main result of the screen is listed elsewhere. These columns were measured beside it and carry no call. The list favours compounds with an active or inconclusive main result. Words in brackets tell the shape of the fitted curve; partial curves, single points and poor fits give uncertain potencies.

Assay: qHTS Assay for Lipid Storage Modulators in Drosophila S3 Cells;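 as to cell number change: cells counted by Cell Tracker Red CMTPX staining in the red channel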
Conditions: BODIPY lipid droplet fluorescence, 18-24 h; for cell number change: measured here: cell count max response, cells fed with added oleic acid
How it was run: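 Laser-scanning cytometry quantifies lipid droplet accumulation (500–530 nm total intensity; droplet/cell object ratio) in oleic acid-fed (400 uM added) Drosophila S3 cells treated with a concentration series. 20 uM Triacsin C defined 100% inhibition.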

[1] = measured here: lipid fluorescence (Fed channel) AC50, cells fed with added oleic acid
[2] = measured here: cell number channel AC50, cells fed with added oleic acid

| Compound | cell number change | AC50 [1] | AC50 [2] |
| --- | --- | --- | --- |
| COc1cc2c(cc1OC)CN(C(=O)c1cc(S(=O)(=O)N3CCOCC3)c(Cl)cc1Cl)CC2 | -8.12% | 8.2 µM [rising, partial curve] | – |
| Cc1ccccc1-c1nc(CS(=O)(=O)CC(=O)NCCCN2CCOCC2)c(C)o1 | -8.78% | – | – |
| Cc1ccsc1/C=N/NC(=S)NCCc1ccccc1 | 16.6% | – | – |
| COc1ccc(C2C(C#N)=C(N)Oc3n[nH]c(C)c32)cc1Cn1cc([N+](=O)[O-])cn1 (configuration not stated) | -10.2% | – | – |
| Cc1ccc(CNC(=O)c2ccc(N3CCC4(CC3)CC(c3cccc(Br)c3)=NO4)c(NC(=O)c3cccc(C)c3)c2)cc1 | 2.62% | 14.6 µM [rising, single point] | – |
| CCOC(=O)c1c(O)c2c([nH]c1=O)CCCC2 | – | 20.6 µM [falling, partial curve] | – |
| CCOc1cc(CNCC(C)C)c(Cl)cc1OCC(=O)Nc1ccccc1 | 50% | – | – |
| CCOc1cc(C2/C(=C(/O)c3ccc(OC(C)C)cc3)C(=O)C(=O)N2CCCOC)ccc1O (configuration not stated) | -17.7% | 0.184 µM [falling, full curve, poor fit] | – |
| C/C(=N\NC(=O)Cn1nc(C)c([N+](=O)[O-])c1C)c1ccc(O)cc1 | 32.9% | – | 18.4 µM [rising, single point] |
| CC1(C)CN(C(Cc2ccccc2)C(N)=O)C1=O (configuration not stated) | -29.2% | – | – |
| O=C(Cn1nnc2ccccc2c1=O)N[C@@H](Cc1c[nH]c2ccccc12)C(=O)O | -21% | 0.82 µM [falling, full curve, poor fit] | – |
| COc1ccc(N2CCN(C(=O)c3sc4ncn(CC(=O)N5CCCCC5)c(=O)c4c3C)CC2)cc1 | – | 0.58 µM [falling, single point] | 0.103 µM [rising, full curve, poor fit] |
| Cc1nn(CCOc2cccc(Cl)c2)c(C)c1[N+](=O)[O-] | 60.1% | 0.411 µM [rising, full curve] | 25.9 µM [rising, single point] |
| O=C(CNC(=O)c1ccccc1)N/N=C/c1ccc([N+](=O)[O-])o1 | -14.2% | 4.61 µM [falling, full curve] | 6.51 µM [falling, single point] |
| N#Cc1c(-c2ccc(Cl)cc2)ccnc1N1CCOCC1 | -63.1% | 0.092 µM [falling, full curve, poor fit] | 11.6 µM [falling, partial curve] |
| CC(=O)Nc1cccc(C(=O)OCC(=O)NCc2ccc(F)cc2)c1 | -13.7% | – | – |
| Cc1ccc(OCC(=O)Nc2ccc(C(N)=O)cc2)cc1 | 2.7% | 3.66 µM [falling, single point] | – |
| NC(=O)N1CC(O)CC1C(=O)Nc1ccc(Cl)c(Cl)c1 (configuration not stated) | -9% | 20.6 µM [rising, single point] | – |
| Cc1ccc(NCc2nc3ccccc3n2CCOc2ccccc2)cc1 | 5.91% | 4.11 µM [rising, partial curve, poor fit] | – |
| Cc1ccc(Nc2cc(C(=O)NCCCN3CCOCC3)c3ccccc3n2)cc1C | -2.69% | 6.51 µM [rising, single point] | – |

| Compound | cell number change | AC50 [1] | AC50 [2] |
| --- | --- | --- | --- |
| O=C(COc1ccccc1-c1ccccc1)Nc1ccc(S(=O)(=O)NCc2ccco2)cc1 | – | 0.58 µM [falling, single point] | – |
| Cc1ccc(C)c(S(=O)(=O)N=Nc2c(O)[nH]c3ccccc23)c1 | -5.6% | 3.26 µM [falling, full curve, poor fit] | – |
| COc1ccc(CCN2C(=O)CSC2c2ccc(F)cc2)cc1 (configuration not stated) | 18% | – | – |
| O=C(CSc1cn(CC(=O)N2CCCCC2)c2ccccc12)NCC1CCCO1 (configuration not stated) | 13.2% | – | – |
| COc1ccc(N(CC(=O)NC(C)C)C(=O)CCC(=O)Nc2ccccn2)cc1 | 27.6% | 29.1 µM [rising, single point] | – |
| O=C(NN=C1CCCC1)c1[nH]c2ccc(Cl)cc2c1-c1ccccc1 | -37.4% | 32.6 µM [falling, single point] | 32.6 µM [falling, single point] |
| C[C@@H](O)C(C(=O)N1CCNCC1)n1cc([C@@H](N)CCCCN)nn1 (some centres not stated) | 7.52% | 29.1 µM [rising, single point] | – |
| COc1ccccc1CC(=O)N1CCN(C(=O)c2ccco2)CC1 | -24.9% | – | 0.0651 µM [falling, full curve, poor fit] |
| Cc1cc(C)nc(NC(=O)NS(=O)(=O)N2CCCCCC2)n1 | -26.9% | 3.26 µM [falling, full curve] | 4.11 µM [falling, full curve, poor fit] |
| O=C(N/N=C/c1ccc(Cl)cc1)c1nc2ccc([N+](=O)[O-])cc2c(=O)[nH]1 | -34.5% | 16.4 µM [falling, partial curve, poor fit] | 32.6 µM [falling, single point] |
| CCOc1ccc2ccccc2c1CNCCc1ccc(S(N)(=O)=O)cc1 | – | 29.1 µM [rising, single point] | – |
| O=C(/C=C/c1ccc(-c2ccccc2[N+](=O)[O-])o1)c1ccco1 | -25.7% | 2.06 µM [rising, partial curve] | – |
| CC(C)C(=O)Nc1nc(-c2ccc(S(=O)(=O)N3CCOCC3)cc2)cs1 | – | 7.31 µM [falling, partial curve, poor fit] | – |
| Oc1ccc(-c2[nH]nc(-c3ccccc3)c2-c2nc3ccccc3[nH]2)cc1 | 1.64% | 25.9 µM [rising, single point] | – |
| Nc1cccc([N+](=O)[O-])c1 | -6.51% | – | – |
| O=C(NS(=O)(=O)Oc1ccccc1F)OC[C@@H]1CCCN2CCCCC12 (some centres not stated) | -4.76% | 6.51 µM [rising, partial curve] | – |
| COc1ccc(Nc2nc3[nH]c(=O)cc(O)c3s2)cc1 | -35.7% | 29.1 µM [falling, single point] | 29.1 µM [falling, single point] |
| COc1ccc(NC(=O)CCCN2C(=O)C3CC=CCC3C2=O)cc1 (configuration not stated) | -9.94% | – | – |
| CCCCNC(=S)Nc1ccc(-c2nc3ccc(C)cc3s2)cc1 | -10.8% | – | – |
| CC1=Nc2ccccc2N=C(NC(=O)CSC(=S)N2CCN(C)CC2)C1c1ccccc1 (configuration not stated) | 16.9% | 0.731 µM [rising, full curve, poor fit] | – |

Some of the entries above, reformatted:
Compound | cell number change | AC50 [1] | AC50 [2]
COc1cc2c(cc1OC)CN(C(=O)c1cc(S(=O)(=O)N3CCOCC3)c(Cl)cc1Cl)CC2 | -8.12% | 8.2 µM [rising, partial curve] | –
CCOc1cc(CNCC(C)C)c(Cl)cc1OCC(=O)Nc1ccccc1 | 50% | – | –
COc1ccc(N2CCN(C(=O)c3sc4ncn(CC(=O)N5CCCCC5)c(=O)c4c3C)CC2)cc1 | – | 0.58 µM [falling, single point] | 0.103 µM [rising, full curve, poor fit]
Cc1nn(CCOc2cccc(Cl)c2)c(C)c1[N+](=O)[O-] | 60.1% | 0.411 µM [rising, full curve] | 25.9 µM [rising, single point]
Cc1ccc(NCc2nc3ccccc3n2CCOc2ccccc2)cc1 | 5.91% | 4.11 µM [rising, partial curve, poor fit] | –
CC(C)C(=O)Nc1nc(-c2ccc(S(=O)(=O)N3CCOCC3)cc2)cs1 | – | 7.31 µM [falling, partial curve, poor fit] | –
COc1ccc(NC(=O)CCCN2C(=O)C3CC=CCC3C2=O)cc1 (configuration not stated) | -9.94% | – | –
